# Percent effect of library compounds

Protein sequences, listed by entry. Tags and fused reporters are not part of them. Residues count along the entry.
UniProt P9WFT3, whole entry: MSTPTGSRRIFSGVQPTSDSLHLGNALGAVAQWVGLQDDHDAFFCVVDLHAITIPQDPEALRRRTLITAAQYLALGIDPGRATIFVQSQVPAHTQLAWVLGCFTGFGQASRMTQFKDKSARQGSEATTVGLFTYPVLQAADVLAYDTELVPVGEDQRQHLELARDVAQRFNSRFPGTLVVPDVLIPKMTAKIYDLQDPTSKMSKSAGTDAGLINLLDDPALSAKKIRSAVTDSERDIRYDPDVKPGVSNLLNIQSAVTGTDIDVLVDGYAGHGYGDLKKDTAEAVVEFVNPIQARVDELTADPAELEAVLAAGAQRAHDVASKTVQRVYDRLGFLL
UniProt I6X8D2, whole entry: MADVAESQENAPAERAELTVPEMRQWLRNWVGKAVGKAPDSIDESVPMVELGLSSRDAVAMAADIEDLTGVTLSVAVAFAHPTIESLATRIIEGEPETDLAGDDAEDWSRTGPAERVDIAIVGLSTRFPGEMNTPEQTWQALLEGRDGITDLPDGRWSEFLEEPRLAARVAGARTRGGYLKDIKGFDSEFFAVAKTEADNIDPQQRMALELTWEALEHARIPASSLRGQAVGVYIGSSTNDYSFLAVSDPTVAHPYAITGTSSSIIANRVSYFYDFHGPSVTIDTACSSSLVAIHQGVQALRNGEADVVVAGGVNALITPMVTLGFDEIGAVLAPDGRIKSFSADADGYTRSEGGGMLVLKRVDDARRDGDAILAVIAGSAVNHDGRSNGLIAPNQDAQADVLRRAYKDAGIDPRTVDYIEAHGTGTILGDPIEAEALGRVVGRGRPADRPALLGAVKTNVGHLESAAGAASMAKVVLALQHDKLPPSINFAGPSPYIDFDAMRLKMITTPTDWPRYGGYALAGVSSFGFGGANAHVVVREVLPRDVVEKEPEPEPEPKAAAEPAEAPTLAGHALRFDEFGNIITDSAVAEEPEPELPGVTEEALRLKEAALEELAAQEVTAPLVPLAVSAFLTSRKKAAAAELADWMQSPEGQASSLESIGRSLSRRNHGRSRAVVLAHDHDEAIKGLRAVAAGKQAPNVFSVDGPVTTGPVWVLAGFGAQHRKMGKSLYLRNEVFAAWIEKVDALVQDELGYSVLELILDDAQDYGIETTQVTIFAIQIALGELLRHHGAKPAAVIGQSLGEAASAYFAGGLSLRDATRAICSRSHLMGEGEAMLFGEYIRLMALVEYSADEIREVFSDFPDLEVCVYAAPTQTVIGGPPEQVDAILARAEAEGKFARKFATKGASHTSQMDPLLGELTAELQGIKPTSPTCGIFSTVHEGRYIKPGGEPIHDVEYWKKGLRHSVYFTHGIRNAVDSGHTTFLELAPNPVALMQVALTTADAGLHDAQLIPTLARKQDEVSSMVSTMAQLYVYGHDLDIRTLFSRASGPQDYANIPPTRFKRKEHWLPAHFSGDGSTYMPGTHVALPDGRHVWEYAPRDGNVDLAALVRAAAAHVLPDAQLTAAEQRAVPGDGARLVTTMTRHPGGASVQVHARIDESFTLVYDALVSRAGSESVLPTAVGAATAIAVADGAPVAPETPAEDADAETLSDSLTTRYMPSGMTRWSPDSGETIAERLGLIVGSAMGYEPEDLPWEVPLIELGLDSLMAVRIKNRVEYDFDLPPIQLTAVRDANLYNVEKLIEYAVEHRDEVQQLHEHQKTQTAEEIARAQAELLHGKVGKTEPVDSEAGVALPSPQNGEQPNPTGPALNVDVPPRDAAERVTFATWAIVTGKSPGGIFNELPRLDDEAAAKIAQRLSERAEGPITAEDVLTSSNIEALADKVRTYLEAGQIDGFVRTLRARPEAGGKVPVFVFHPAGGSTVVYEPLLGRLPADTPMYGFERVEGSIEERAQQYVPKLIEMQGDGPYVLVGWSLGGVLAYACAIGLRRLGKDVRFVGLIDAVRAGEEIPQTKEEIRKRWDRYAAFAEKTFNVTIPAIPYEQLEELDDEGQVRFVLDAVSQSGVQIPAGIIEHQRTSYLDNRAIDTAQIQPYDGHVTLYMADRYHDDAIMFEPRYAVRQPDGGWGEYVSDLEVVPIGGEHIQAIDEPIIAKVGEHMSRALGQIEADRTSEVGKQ
UniProt A4I591, 1-473: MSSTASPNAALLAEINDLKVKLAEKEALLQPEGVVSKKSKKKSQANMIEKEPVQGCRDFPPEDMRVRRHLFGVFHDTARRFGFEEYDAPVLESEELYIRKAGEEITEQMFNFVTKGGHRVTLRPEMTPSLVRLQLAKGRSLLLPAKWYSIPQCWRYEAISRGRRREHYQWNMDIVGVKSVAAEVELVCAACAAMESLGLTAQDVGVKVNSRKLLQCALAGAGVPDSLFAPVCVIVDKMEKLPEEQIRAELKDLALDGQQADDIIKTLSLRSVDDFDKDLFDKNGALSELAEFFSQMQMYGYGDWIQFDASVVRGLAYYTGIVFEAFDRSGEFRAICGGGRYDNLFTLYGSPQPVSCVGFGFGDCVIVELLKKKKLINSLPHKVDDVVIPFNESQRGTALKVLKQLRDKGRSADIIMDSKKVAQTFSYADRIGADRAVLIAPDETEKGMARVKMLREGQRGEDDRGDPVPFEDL
UniProt Q8IDJ8, 1-583: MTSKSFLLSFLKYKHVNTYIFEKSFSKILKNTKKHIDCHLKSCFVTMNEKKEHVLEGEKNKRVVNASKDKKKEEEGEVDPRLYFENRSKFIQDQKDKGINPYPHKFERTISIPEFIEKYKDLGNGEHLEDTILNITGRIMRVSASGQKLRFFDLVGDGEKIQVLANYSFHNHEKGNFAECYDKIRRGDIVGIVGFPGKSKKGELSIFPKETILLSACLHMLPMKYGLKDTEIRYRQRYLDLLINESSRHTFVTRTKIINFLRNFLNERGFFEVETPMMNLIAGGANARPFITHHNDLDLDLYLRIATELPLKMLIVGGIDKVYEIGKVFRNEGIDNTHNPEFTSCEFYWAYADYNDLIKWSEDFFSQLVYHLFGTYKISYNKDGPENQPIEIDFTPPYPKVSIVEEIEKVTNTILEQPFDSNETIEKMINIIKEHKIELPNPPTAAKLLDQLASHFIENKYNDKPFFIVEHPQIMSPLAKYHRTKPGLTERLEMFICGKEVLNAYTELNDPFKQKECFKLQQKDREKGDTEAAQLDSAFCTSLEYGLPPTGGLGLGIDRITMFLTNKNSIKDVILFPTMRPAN

Values are the deposited “Percent Effect”, in %.
The controls that fix the scale are not given in the record; negative values are as filed.
The compounds are a random part of those screened.
A dash means the value is not listed here; it may have been measured.

MtTrpRS: 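Tryptophan-tRNA ligase, Mycobacterium tuberculosis (UniProt P9WFT3). Enzyme assay of tryptophanyl-tRNA synthetase; the read-out is not stated. Compounds at 10 µM. Higher most likely means stronger inhibition; the record gives no direction and few retests gave an IC50. Size under these conditions: about 65,000 compounds, about 64 of them at 50% or above in at least one test.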
Pks13 thioesterase: 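Enzyme assay of the thioesterase domain of polyketide synthase 13; the read-out is not stated. Target: Polyketide synthase Pks13, Mycobacterium tuberculosis (UniProt I6X8D2). Tested at 30 µM. Higher reads as stronger inhibition (inferred from which compounds were picked for retests). Size under these conditions: about 67,000 compounds, about 300 of them at 50% or above in at least one test.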
LiHisRS: 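Enzyme assay of histidyl-tRNA synthetase; the read-out is not stated. Target: Histidine-tRNA ligase, Leishmania infantum (UniProt A4I591). Compounds at 30 µM. The record gives no direction; compounds that gave an IC50 in retests scored well above the rest, so higher reads as stronger inhibition. The assay is labelled LdHisRS but filed under L. infantum. Of about 69,000 compounds tested this way, about 410 (0.6%) reached 50% or more in at least one test.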
PfKRS1: 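Lysine-tRNA ligase, Plasmodium falciparum 3D7 (UniProt Q8IDJ8). Enzyme assay of the cytosolic lysyl-tRNA synthetase in 384-well plates, read by luminescence. Concentration: 30 µM. Direction is inferred from only a few compounds that gave an IC50; most scored high, so higher reads as stronger inhibition. Of about 69,000 compounds tested this way, about 49 (0.071%) reached 50% or more in at least one test.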

SMILES | MtTrpRS | Pks13 thioesterase | LiHisRS | PfKRS1
O=C(C[S+]([O-])c1ccc(F)c(F)c1)NCc1cc(F)cc(F)c1 (centres undefined) | -6.242 | -0.503 | 8.219 | 5.928
CCOCC1COCCC12CCN(C(=O)C1=CCCC1)CC2 (centres undefined) | -2.05 | -6.923 | 15.52 | 7.137
CC(=O)NCc1noc2c1CN(Cc1cnn(C)c1)CC2 | -0.8721 | -30.21 | 13.68 | 2.934
CN(C)C[C@H]1C[C@@H]2CN(C(=O)c3ccco3)C[C@@H]2O1 | 1.841 | -30.37 | 10.26 | 0.4324
Cc1cc(CC(=O)NCC(O)COc2ccc(F)c(F)c2)no1 (centres undefined) | 0.9272 | 4.189 | 21.98 | -2.3
CCn1cnnc1C1CCN(C(=O)c2ccc(Cl)cc2OC)CC1 | 0.4868 | -7.641 | 13.91 | 0.8016
Cc1nc(CN(C)C2CCN(CCn3cc(C#N)cn3)C2)no1 (centres undefined) | 22.57 | -9.962 | 17.54 | -3.168
Fc1cnc(N2CCCC3(CN(Cc4cccs4)CCO3)C2)nc1 (centres undefined) | - | 8.164 | 3.846 | 0.2651
O=C(c1ccn(-c2cccc(F)c2)n1)N1CCN(CCO)CC1 | -4.155 | -14.89 | 12.12 | 2.662
Cc1nn(C)c2c(=O)n(CC(=O)NCc3ccc(N(C)C)cc3)ccc12 | -2.022 | -6.168 | 14.13 | 5.998
C[C@@H]1CN(c2ccc(Cl)cn2)C[C@@]1(O)C1CC1 | -4.996 | 1.518 | 12.94 | 5.503
Cc1cc(C)n(C2CN(Cc3noc(C4CC4)n3)C2)n1 | 1.227 | 2.839 | 15.29 | -2.034
CSCCC(=O)N1CCc2c(ncnc2N2CCOCC2)C1 | -0.277 | -10.87 | 3.03 | 3.553
C[C@@H]1CN(C2(C(=O)N3CCOCC3)Cc3ccccc3C2)C[C@H](C)O1 | -0.9479 | -9.181 | 24.04 | 4.092
Cc1ncc(CN(C)CC2CCCN2c2cccnn2)s1 (centres undefined) | -7.115 | -5.492 | 18.92 | -2.42
Cc1csc(CNC(=O)NC2CCCc3c2cnn3CCO)n1 (centres undefined) | 0.9413 | -12.82 | 22.32 | 2.722
Cc1ccoc1C(=O)N1CC(C(=O)NCC2CC2)C2(CCOCC2)C1 (centres undefined) | 3.745 | -31.29 | 11.5 | 0.8585
CN1CC(Oc2ccc(Cl)cc2)=NC(SCC(=O)c2ccccc2)=N1 | 0.6937 | -12.64 | 17.65 | -1.978
CC(C)(CO)Nc1c(NCc2ccncc2)c(=O)c1=O | -0.06817 | 2.755 | 39.47 | 9.404
CC(C)CN1CCC2(CCN(Cc3ccsc3)CC2)C1=O | 3.282 | -4.174 | 19.51 | 2.604
CC(CNC(=O)c1cccc(C#N)c1)N1CCc2ccccc21 (centres undefined) | -1.407 | -11.89 | 14.88 | 4.326
O=C(NCc1ccc2nonc2c1)C1CCN(C(=O)C2CCC2)CC1 | 2.886 | -7.98 | 16.67 | 3.778
CN1CC(=O)N(c2cnn(C)c2)CC12CCN(Cc1cccnc1)C2 (centres undefined) | -0.4504 | 4.12 | 8.065 | 1.428
CCc1cc(NCC(O)CN2CCCCC2)n2ncnc2n1 (centres undefined) | -0.1059 | -32.61 | 22.86 | 5.398
Cc1ccccc1CN1CCN(C(=O)c2ccn(C(C)(C)C)c2)CC1 | -3.537 | -13.29 | 10.87 | 1.177
CC(C)c1nnc2n1CCN(Cc1ncc(-c3ccccc3)o1)C2 | -6.591 | -7.413 | 26.79 | -0.2301
CC1(C)Cc2ccc(C(=O)NC3CCOCC3)c(O)c2O1 | -4.9 | 3.387 | 19.51 | -0.5119
CCc1cnc(CN(C)C2CCN(c3sccc3C#N)C2=O)s1 (centres undefined) | -3.757 | -42.41 | 8.901 | -0.6217
O=C1CN([C@@H]2CC[C@@H](NS(=O)(=O)c3ccccc3F)[C@H]2O)CCN1 | 5.809 | -2.588 | 12.59 | -0.2444
Cn1nnc(NCc2ccc(OCc3ccc(Cl)cc3)cc2)n1 | -2.205 | 33.43 | -8.219 | -1.366
O=C(C(CNCc1ccccn1)c1ccccc1)N1CCOCC1 (centres undefined) | -5.487 | -22.71 | 22.35 | -0.0718
Cc1nc(CC(=O)NCCNc2nccc(C(F)(F)F)n2)cs1 | -3.65 | -34.02 | 10 | 0.4981
CN[C@@H]1CCC[C@@H](Oc2ccccc2Oc2ccc(C)cc2)[C@@H]1O | -4.777 | -15.75 | 14.77 | 1.83
CCCc1nc(CN2CCN(CC(O)c3ccccc3)CC2)no1 (centres undefined) | -1.462 | -5.596 | 13.51 | 2.565
CS(=O)(=O)NCC(=O)N1CCCC1c1noc(C2CC2)n1 (centres undefined) | 0.8881 | -18.95 | 14.56 | 4.316
Cc1cc(CN(C)C2CCCN(c3cccnn3)C2)no1 (centres undefined) | 5.355 | -8.359 | 24.35 | 1.031
CC(C)(C)c1cc(NC(=O)NCCc2nnc3n2CCC3)c(C#N)s1 | 1.083 | -24.34 | 15.71 | 3.837

The first 4 entries again:

{"smiles": "O=C(C[S+]([O-])c1ccc(F)c(F)c1)NCc1cc(F)cc(F)c1", "stereo": "centres undefined", "MtTrpRS": -6.242, "Pks13 thioesterase": -0.503, "LiHisRS": 8.219, "PfKRS1": 5.928}
{"smiles": "CCOCC1COCCC12CCN(C(=O)C1=CCCC1)CC2", "stereo": "centres undefined", "MtTrpRS": -2.05, "Pks13 thioesterase": -6.923, "LiHisRS": 15.52, "PfKRS1": 7.137}
{"smiles": "CC(=O)NCc1noc2c1CN(Cc1cnn(C)c1)CC2", "MtTrpRS": -0.8721, "Pks13 thioesterase": -30.21, "LiHisRS": 13.68, "PfKRS1": 2.934}
{"smiles": "CN(C)C[C@H]1C[C@@H]2CN(C(=O)c3ccco3)C[C@@H]2O1", "MtTrpRS": 1.841, "Pks13 thioesterase": -30.37, "LiHisRS": 10.26, "PfKRS1": 0.4324}

Source: ChEMBL document CHEMBL3988442, “University of Dundee, Small-Polar-MMV Screening Library” (2021).